Measured values as given in patent US11044911B2, “Phenoxyurea compound and pest control agent” (Nippon Soda Co., Ltd., priority 2018, dated 2021).
Some results were stated once for a whole list of compounds, not compound by compound.

Columns and labels:
[1] = tested on: Ascaridia galli (L3) and Oesophagostomum dentatum (L3, L4); experiment: Test Example 11: in vitro larval test against Ascaridia galli and Oesophagostomum dentatum; settings: activity against one or more target parasites
[2] = tested on: Panonychus citri from Kanagawa Prefecture; experiment: Test Example 3: efficacy test 1 against Panonychus citri (spray on mandarin orange leaves); format: in vivo; settings: Kanagawa Prefecture strain, 125 ppm spray, 10 days
Tetranychus urticae = experiment: Test Example 9: efficacy test against Tetranychus urticae (root dipping test); format: in vivo; settings: 9.4 ppm, 14 days after inoculation
[3] = tested on: Aculops pelekassi from Ehime Prefecture; experiment: Test Example 4: efficacy test against Aculops pelekassi; format: in vivo; settings: 125 ppm spray, 10 days
L3 Haemonchus contortus = experiment: Test Example 12: in vitro larval test against Haemonchus contortus; settings: L3 larvae
[4] = tested on: drug resistant strains of spider mites; experiment: Test Example 13: summary over all drug resistant strains of spider mites; format: in vivo, Tetranychus urticae, Panonychus citri; settings: 9.4 ppm
Experimental: Efficacy tests against seven drug-resistant strains of Tetranychus urticae collected from various parts of Japan (one strain from Shizuoka Prefecture, Aomori Prefecture and Fukuoka Prefecture, and two strains from Chiba Prefecture and Nagano Prefecture) were conducted in the following manner.
8 adult females of drug-resistant strains of spider mites were inoculated on kidney bean plant leaves placed in a petri dish. Then, the emulsion (I) was diluted with water so that the concentration of the compound was 37.5 ppm or 9.4 ppm to obtain a chemical. This chemical was sprayed onto the kidney bean plant leaves with a rotary spray tower. The kidney bean plant leaves were placed in a thermostatic chamber at a temperature of 25° C. and a humidity of 65%. The life and death of the spider mite were investigated when 10 days had passed after the spraying, and the insecticidal rate was calculated.
In addition, an efficacy test against a drug-resistant strain of Panonychus citri collected in Wakayama Prefecture was conducted in the following manner.
8 adult females of a drug resistant strain of Panonychus citri were inoculated on mandarin orange leaves placed in a petri dish. Then, the emulsion (I) was diluted with water so that the concentration of the compound was 37.5 ppm or 9.4 ppm to obtain a chemical. This chemical was sprayed onto the mandarin orange leaves with a rotary spray tower. The mandarin orange leaves were placed in a thermostatic chamber at a temperature of 25° C. and a humidity of 65%. The life and death of the spider mite were investigated when 10 days had passed after the spraying, and the corrected insecticidal rate was calculated.

| Compound | MEC (minimum effective concentration) [1] [M] | insecticidal rate against Panonychus citri [2] [%] | control value against Tetranychus urticae (Tetranychus urticae) [%] | insecticidal rate against Aculops pelekassi [3] [%] | MEC (minimum effective concentration) (L3 Haemonchus contortus) [M] | efficacy against some resistant strains of spider mites [4] |
| --- | --- | --- | --- | --- | --- | --- |
| CCN(Oc1cc(Br)cc(C(F)(F)F)c1)C(=O)NC(C)(C)C(=O)NC(C)C [Compound 1-2] | ≤ 25 | ≥ 90 | ≥ 90 | ≥ 90 | – | – |
| CCN(Oc1cc(Br)cc(C(F)(F)F)c1)C(=O)NC(C)(C)C(=O)NCC(F)(F)F [Compound 1-1, 2-{3-[3-Bromo-5-(trifluoromethyl)phenoxy]-3-ethylureido}-2-methyl-N-(2,2,2-trifluoroethyl)propanamide] | ≤ 25 | ≥ 90 | ≥ 90 | ≥ 90 | ≤ 25 | – |
| CCN(Oc1cc(Cl)cc(Br)c1)C(=O)NC(C)(C)C(=O)NCC(F)(F)F [Compound (D)] | – | – | – | – | – | less than 90 |
| CCN(Oc1ccnc(C(F)(F)F)c1)C(=O)NC(C)(C)C(=O)NCC(F)(F)F [Compound (H)] | – | – | – | – | – | less than 90 |
| CCN(Oc1cc(Br)nc(Br)c1)C(=O)NC(C)(C)C(=O)NCC(F)(F)F [Compound (G)] | – | – | – | – | – | less than 90 |
